Data on one molecule can be found in paper PMC5618690, “Structural and functional analysis of two small leucine-rich repeat proteoglycans, fibromodulin and chondroadherin” (Matrix Biology, 2017).

For the assay, the target named is acid-solubilized collagen II. In words: ELISA; inhibition: collagen II coated at 10 μg/ml; 10 μg/ml biotinylated chondroadherin pre-incubated 1 h with II-26 or III-8 at 50, 100, 200, 400 μg/ml; both purified.

Results are given in words; binding and its absence hold for the method and conditions named. Binding can be weak; no strength is given.

B1: biotinylated human chondroadherin (protein, UniProt O15335 23-359)
chain: APLACPQNCHCHSDLQHVICDKVGLQKIPKVSEKTKLLNLQRNNFPVLAANSFRAMPNLVSLHLQHCQIREVAAGAFRGLKQLIYLYLSHNDIRVLRAGAFDDLTELTYLYLDHNKVTELPRGLLSPLVNLFILQLNNNKIRELRAGAFQGAKDLRWLYLSENALSSLQPGALDDVENLAKFHVDRNQLSSYPSAALSKLRVVEELKLSHNPLKSIPDNAFQSFGRYLETLWLDNTNLEKFSDGAFLGVTTLKHVHLENNRLNQLPSNFPFDSLETLALTNNPWKCTCQLRGLRRWLEAKASRPDATCASPAKFKGQHIRDTDAFRSCKFPTKRSKKAGRH
modifications: biotin (EZ-link reagent), sites not stated
As to B1, the binding result is “binds”.
